The values below come from the supplement of paper PMC10849652.

By UniProt entry, the sequences of proteins in these tests, tags left out. Where a name states a change or a piece, a line headed by the entry shows the natural chain unless it says otherwise.
UniProt P10109: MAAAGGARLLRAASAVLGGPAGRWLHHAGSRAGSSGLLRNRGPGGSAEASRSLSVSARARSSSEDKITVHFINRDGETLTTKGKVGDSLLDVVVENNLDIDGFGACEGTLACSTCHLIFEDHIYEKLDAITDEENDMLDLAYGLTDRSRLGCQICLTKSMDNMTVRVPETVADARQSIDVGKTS
UniProt Q9NXK8: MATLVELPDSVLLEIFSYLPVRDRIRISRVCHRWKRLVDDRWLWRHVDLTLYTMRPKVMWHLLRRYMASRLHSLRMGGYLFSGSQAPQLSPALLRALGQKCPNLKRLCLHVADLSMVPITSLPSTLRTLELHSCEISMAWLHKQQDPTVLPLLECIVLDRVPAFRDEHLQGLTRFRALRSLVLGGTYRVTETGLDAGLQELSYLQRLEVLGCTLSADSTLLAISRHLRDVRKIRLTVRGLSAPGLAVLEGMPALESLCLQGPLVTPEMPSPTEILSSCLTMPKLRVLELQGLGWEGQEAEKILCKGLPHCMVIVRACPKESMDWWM
UniProt Q9UIM3: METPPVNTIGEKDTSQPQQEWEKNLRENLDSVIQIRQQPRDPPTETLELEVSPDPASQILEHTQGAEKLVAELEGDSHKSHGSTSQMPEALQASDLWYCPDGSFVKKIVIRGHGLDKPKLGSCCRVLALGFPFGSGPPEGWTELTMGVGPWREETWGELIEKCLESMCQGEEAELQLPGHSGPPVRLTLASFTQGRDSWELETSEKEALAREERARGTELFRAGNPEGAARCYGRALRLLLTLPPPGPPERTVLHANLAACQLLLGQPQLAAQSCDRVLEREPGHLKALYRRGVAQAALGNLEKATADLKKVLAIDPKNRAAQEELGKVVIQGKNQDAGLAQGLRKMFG
UniProt Q6UN15: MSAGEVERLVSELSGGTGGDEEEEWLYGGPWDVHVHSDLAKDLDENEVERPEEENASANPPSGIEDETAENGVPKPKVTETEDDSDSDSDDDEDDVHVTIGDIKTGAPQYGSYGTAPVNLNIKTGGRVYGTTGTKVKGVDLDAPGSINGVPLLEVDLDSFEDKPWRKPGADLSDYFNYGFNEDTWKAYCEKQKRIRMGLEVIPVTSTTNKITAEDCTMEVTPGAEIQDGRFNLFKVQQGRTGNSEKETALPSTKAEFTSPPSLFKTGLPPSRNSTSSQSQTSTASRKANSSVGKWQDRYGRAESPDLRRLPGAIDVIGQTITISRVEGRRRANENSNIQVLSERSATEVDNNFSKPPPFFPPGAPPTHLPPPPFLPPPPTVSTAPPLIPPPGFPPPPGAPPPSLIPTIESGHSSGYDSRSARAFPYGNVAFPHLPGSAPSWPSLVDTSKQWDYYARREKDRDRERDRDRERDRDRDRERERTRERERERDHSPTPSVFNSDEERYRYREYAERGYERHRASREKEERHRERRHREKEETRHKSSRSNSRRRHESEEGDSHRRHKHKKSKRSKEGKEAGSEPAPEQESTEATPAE
UniProt Q9NUQ9: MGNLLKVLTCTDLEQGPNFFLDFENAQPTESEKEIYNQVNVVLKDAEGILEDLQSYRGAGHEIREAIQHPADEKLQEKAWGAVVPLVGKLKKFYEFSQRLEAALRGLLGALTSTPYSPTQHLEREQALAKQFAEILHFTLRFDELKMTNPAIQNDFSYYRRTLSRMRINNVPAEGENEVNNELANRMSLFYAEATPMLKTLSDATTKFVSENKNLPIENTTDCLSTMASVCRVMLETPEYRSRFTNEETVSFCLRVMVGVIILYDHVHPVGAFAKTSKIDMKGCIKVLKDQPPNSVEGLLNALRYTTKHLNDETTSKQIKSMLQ
UniProt Q96ND0: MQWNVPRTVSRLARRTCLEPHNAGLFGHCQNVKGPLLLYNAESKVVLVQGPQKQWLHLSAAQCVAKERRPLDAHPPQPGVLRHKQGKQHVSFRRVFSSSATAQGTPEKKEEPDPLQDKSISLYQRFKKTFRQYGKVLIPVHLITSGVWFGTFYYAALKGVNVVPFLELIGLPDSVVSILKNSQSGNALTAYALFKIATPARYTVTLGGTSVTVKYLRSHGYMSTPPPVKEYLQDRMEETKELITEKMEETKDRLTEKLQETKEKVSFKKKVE
UniProt Q8TB52: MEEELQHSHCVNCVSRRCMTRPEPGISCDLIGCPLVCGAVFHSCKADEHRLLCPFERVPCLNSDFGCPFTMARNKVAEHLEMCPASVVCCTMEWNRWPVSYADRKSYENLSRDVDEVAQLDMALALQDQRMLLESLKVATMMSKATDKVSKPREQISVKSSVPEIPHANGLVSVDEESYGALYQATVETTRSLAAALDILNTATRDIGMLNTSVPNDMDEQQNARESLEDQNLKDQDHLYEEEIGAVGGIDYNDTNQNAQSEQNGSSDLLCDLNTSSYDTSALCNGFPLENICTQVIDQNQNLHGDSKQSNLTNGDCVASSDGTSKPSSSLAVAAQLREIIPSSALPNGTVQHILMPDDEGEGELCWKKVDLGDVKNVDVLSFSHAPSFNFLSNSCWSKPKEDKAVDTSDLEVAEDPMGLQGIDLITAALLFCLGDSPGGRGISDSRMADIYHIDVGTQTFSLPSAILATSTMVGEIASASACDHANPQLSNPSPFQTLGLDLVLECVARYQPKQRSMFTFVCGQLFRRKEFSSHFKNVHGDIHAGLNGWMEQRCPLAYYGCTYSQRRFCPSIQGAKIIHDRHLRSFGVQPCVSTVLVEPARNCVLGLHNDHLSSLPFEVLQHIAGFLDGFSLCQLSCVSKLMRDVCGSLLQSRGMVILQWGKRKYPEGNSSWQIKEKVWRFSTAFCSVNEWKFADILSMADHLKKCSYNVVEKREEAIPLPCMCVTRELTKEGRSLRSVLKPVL
UniProt P07954: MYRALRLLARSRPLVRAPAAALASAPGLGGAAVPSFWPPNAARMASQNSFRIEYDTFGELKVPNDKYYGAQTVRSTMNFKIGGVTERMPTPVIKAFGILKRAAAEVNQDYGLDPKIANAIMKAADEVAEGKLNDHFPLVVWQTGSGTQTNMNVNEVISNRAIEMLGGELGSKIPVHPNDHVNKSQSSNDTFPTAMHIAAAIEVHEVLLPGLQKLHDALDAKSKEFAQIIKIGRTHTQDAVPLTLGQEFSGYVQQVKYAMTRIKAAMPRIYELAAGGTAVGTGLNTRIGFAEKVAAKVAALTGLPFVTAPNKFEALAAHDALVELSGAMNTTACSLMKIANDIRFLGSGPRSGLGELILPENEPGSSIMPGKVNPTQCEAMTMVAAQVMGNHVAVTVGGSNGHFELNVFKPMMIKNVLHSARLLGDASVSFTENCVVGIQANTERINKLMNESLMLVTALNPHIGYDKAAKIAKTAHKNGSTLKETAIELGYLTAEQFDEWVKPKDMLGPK
UniProt Q96ME1: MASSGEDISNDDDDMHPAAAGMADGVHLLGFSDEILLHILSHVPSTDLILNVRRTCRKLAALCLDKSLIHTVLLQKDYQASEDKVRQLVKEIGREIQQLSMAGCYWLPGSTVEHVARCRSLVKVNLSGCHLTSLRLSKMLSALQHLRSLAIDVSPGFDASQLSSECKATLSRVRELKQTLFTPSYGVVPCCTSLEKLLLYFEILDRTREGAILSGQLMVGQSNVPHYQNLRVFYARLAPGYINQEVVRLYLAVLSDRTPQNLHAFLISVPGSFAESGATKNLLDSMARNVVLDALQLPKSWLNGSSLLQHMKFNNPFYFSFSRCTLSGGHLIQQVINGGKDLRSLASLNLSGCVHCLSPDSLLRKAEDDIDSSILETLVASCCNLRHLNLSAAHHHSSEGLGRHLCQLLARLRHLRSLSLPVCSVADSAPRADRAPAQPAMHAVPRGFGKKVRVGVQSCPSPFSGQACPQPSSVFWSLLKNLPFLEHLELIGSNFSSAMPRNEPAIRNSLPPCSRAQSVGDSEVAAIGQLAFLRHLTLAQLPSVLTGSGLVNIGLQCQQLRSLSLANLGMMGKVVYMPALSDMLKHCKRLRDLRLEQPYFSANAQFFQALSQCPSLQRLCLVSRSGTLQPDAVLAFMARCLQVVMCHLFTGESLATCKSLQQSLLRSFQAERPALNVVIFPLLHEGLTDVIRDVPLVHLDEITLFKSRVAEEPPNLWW
UniProt Q96CP2: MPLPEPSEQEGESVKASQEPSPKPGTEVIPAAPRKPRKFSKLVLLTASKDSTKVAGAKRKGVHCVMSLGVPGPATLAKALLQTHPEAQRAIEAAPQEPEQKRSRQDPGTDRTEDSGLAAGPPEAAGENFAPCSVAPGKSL
UniProt P62942, whole entry, looked up: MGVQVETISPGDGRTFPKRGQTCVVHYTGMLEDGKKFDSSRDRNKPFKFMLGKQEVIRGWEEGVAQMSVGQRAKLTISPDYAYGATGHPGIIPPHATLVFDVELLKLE
UniProt A6NHQ2: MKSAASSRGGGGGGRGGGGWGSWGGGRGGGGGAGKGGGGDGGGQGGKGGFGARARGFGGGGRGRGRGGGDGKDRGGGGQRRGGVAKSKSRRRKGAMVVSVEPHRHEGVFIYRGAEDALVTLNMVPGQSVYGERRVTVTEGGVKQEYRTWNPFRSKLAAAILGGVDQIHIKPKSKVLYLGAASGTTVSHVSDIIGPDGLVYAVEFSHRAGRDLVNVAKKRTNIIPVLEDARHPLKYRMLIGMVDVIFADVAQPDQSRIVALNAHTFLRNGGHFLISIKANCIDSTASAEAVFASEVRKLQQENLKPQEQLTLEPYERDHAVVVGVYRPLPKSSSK
UniProt Q9NSD9: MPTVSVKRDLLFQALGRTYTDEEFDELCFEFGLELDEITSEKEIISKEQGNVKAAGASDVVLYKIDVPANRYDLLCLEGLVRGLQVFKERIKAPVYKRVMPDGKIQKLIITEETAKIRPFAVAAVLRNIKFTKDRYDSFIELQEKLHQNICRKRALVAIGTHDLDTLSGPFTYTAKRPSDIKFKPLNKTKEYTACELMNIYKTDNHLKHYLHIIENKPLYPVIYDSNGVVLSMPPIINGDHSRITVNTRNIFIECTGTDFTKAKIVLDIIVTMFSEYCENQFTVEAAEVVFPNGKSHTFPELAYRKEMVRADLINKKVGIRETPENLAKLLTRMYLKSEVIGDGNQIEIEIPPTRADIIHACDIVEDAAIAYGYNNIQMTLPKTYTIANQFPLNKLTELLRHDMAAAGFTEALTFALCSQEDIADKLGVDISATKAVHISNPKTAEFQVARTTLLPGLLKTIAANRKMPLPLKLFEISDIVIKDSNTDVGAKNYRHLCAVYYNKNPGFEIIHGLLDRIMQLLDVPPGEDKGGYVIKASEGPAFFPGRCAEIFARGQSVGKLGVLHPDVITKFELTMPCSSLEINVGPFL
UniProt Q8N0W3: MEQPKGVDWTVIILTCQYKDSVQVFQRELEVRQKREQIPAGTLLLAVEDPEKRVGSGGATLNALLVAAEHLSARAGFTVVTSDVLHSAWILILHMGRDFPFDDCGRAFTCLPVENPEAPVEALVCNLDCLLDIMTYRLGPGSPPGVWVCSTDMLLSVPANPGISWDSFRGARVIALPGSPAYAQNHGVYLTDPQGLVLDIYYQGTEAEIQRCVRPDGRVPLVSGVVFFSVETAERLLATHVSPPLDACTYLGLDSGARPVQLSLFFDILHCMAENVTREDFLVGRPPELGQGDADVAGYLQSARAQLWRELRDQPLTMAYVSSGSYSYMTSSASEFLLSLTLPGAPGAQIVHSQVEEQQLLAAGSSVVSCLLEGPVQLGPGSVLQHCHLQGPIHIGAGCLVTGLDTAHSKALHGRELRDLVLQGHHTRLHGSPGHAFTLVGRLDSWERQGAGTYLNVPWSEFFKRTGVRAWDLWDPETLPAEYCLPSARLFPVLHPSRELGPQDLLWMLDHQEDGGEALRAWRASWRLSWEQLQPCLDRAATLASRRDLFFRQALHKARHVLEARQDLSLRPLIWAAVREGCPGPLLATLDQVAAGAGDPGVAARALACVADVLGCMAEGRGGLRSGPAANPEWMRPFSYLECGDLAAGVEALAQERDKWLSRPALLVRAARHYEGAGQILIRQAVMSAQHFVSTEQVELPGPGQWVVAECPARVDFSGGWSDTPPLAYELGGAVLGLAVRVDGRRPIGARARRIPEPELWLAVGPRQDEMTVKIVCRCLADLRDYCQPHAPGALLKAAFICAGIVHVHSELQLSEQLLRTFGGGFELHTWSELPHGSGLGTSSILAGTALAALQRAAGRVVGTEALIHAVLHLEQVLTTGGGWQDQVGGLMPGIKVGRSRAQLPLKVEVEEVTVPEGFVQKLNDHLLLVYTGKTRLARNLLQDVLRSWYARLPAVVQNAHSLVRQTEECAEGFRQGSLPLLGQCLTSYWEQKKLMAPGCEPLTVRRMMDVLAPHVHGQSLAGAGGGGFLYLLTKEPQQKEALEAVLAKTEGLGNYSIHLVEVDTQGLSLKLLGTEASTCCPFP
UniProt Q6P4F2: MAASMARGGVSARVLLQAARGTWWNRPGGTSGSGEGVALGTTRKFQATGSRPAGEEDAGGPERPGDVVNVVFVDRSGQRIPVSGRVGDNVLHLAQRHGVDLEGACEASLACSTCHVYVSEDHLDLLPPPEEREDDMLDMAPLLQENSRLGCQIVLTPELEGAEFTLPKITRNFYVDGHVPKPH
UniProt Q9Y421: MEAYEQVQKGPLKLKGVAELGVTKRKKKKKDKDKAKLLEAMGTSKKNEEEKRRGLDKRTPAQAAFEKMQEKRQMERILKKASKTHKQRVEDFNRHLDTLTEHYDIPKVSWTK

The other results are listed elsewhere or left out.

Compound in this test: CC1=CC=C(C=C1)SC2=C3C=C(SC3=CN=C2)C(=O)N
The test is described as follows: log2 fold change, soluble protein after heating vs DMSO (PISA); higher = thermal stabilisation; K562 cells, 10 uM, 30 min; active = over 0.2 and 3.5 SD of the protein, either way, in both replicates (recomputed). The method, boiled down:
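K562 cells (2×10^6 cells/mL) were treated with 10 μM compound for 30 min, and aliquots were heated for 3 min over 48°C-58°C. Pooled aliquots were extracted in PBS with 0.5% NP-40 at 4°C, and the supernatant after 21,000xg for 90 min was measured by TMTpro 16plex LC-MS/MS with channel sums equalised. Reported thermal stability, relative to control samples and from duplicates, is a log2 fold change.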
On to FDX1 (UniProt P10109), for which the log2 fold change is inactive: -0.018.
The result for FBXL12 (UniProt Q9NXK8) reads inactive: -0.003; that for FKBPL (UniProt Q9UIM3), inactive: -0.047.
The result for FCGR2C (UniProt P31995) reads inactive: 0.021; that for FANCB (UniProt Q8NB91), inactive: 0.022.
As to FIP1L1 (UniProt Q6UN15), the log2 fold change was inactive: -0.04.
The result for FLVCR1 (UniProt Q9Y5Y0) reads inactive: -0.004; that for FAM49B (UniProt Q9NUQ9), inactive: 0.002.
The result for FAM210A (UniProt Q96ND0) reads inactive: -0.031; that for FBXO30 (UniProt Q8TB52), inactive: -0.029.
The result for FKBP2 (UniProt P26885) reads inactive: 0.022; that for FKBP15 (UniProt Q5T1M5), inactive: -0.02; that for FAR1 (UniProt Q8WVX9), inactive: 0.023.
As for FH (UniProt P07954), the log2 fold change is inactive: -0.035.
The result for FLII (UniProt Q13045) reads inactive: -0.008.
The result for FNBP4 isoform 2 (UniProt Q8N3X1) reads inactive: -0.003; that for FAM98B (UniProt Q52LJ0), inactive: 0.05.
The result for FBXL20 (UniProt Q96IG2) reads inactive: -0.007; that for FBXL18 isoform 4 (UniProt Q96ME1), inactive: 0.045; that for FLYWCH2 (UniProt Q96CP2), inactive: 0.047.
For the target FAM76B (UniProt Q5HYJ3), the log2 fold change is inactive: -0.004.
On to FASN (UniProt P49327), for which the log2 fold change is inactive: 0.021.
The result for FKBP1A (UniProt P62942) reads inactive: 0.118; that for FBLL1 (UniProt A6NHQ2), inactive: -0.188.
The result for FBXO5 (UniProt Q9UKT4) reads inactive: -0.027; that for FARSB (UniProt Q9NSD9), inactive: -0.003; that for FLOT1 (UniProt O75955), inactive: 0.007.
The result for FCSK isoform 2 (UniProt Q8N0W3) reads inactive: 0.041.
Take FBXO22 (UniProt Q8NEZ5): the log2 fold change was inactive: 0.031.
The result for FN3K (UniProt Q9H479) reads inactive: 0.041; that for FCGR2A (UniProt P12318), inactive: -0.148.
The result for FN3KRP (UniProt Q9HA64) reads inactive: -0.006; that for FAM98A (UniProt Q8NCA5), inactive: -0.036.
The result for FKBP9 (UniProt O95302) reads inactive: -0.079; that for FAU (UniProt P62861), inactive: -0.038; that for FKBP5 (UniProt Q13451), inactive: 0.069.
As for FDX2 (UniProt Q6P4F2), the log2 fold change was inactive: 0.036.
The result for FAM32A (UniProt Q9Y421) reads inactive: 0.011.
